These are yes or no findings as the source states them, for the method shown. In cells and extracts the contact can be indirect. A yes stands for co-enrichment or nearness to the bait. Other partners may have been found.
Target: keratin 14 (K14), wild type, mouse (mouse (endogenous in C57Bl/6 newborn skin keratinocytes)) (UniProt Q61781)
Experiment: affinity purification with mass spectrometry; K14 antibody immunoprecipitation (Protein G Sepharose) from lysates of WT newborn mouse skin keratinocytes in primary culture, 1 mM calcium, 4 days; lysis in 1% Triton X-100, 2% Empigen, 40 mM Hepes pH 7.5, 120 mM NaCl; bands excised from silver-stained gels, tandem MS

Amino acid sequences for entries named in this document (tags omitted).
UniProt Q61781: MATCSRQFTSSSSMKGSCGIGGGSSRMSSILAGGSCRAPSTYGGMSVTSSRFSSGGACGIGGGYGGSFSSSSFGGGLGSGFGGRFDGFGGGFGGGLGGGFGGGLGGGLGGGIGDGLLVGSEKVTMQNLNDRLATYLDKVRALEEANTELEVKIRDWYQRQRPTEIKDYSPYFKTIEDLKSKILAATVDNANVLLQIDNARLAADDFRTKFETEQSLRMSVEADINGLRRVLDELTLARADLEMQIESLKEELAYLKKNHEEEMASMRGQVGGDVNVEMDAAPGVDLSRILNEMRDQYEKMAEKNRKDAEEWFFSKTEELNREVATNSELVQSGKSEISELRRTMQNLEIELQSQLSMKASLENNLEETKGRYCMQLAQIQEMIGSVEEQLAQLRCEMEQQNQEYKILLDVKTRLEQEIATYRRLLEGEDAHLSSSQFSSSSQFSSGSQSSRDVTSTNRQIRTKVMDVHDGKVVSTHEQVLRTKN

binding: binds
B1: 14-3-3σ, endogenous, mouse (protein, UniProt O70456 1-248)
chain: MERASLIQKAKLAEQAERYEDMAAFMKSAVEKGEELSCEERNLLSVAYKNVVGGQRAAWRVLSSIEQKSNEEGSEEKGPEVKEYREKVETELRGVCDTVLGLLDSHLIKGAGDAESRVFYLKMKGDYYRYLAEVATGDDKKRIIDSARSAYQEAMDISKKEMPPTNPIRLGLALNFSVFHYEIANSPEEAISLAKTTFDEAMADLHTLSEDSYKDSTLIMQLLRDNLTLWTADSAGEEGGEAPEEPQS

— paper PMC7250575
